The filed quantity is “Percent Effect” (%).
How 0% and 100% were set is not recorded. Most values in the screen are low, and negative values occur.
This is an unselected part of the compounds tested.

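Phenotypic screen: M. tuberculosis growth, cholesterol and DPPC medium, 4 days; the read-out is not stated. Concentration: 500 µM. The record gives no direction; compounds that gave an IC50 in retests scored well above the rest, so higher reads as more growth inhibition. Size under these conditions: about 18,000 compounds, about 900 of them at 50% or above in at least one test.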

For CC(=O)NCCNC(=O)CN(CC1CCOC1)C1CC1 (centres undefined) the result was 4.299%. Cc1n[nH]cc1CNCC(=O)NC(C)C gave -16.38%. With CC(N)c1nccc(N)n1 (centres undefined) the screen gave -25.01%. With CC(C)(C)c1nc(CN2CC[C@H](CO)[C@H](O)C2)no1 the screen gave 0.9555%. With CC(CNC(=O)c1ccc(C#N)cc1)N1CCCC1 (centres undefined) the screen gave 11.81%. CNC(=O)c1cccc(NCc2ccc(C#N)s2)n1 gave 53.18%.

COc1ccc(NC(=O)CSc2ncnc(N)n2)cc1 read 0.3779%. COc1ncc(C(=O)NCc2ccc(F)cc2)cn1 read 5.294%. CC(C)CC(=O)NC1CCN(C(C)C)CC1 gave 23.48%. NC1CCN(CC(F)(F)F)C1 (centres undefined) read 9.587%. Result for Cc1nnc2n1N=C(c1cccs1)CS2 was 4.927%. For CCOc1ncccc1C(=O)N[C@@H]1CCOC[C@H]1OC the result was 9.479%.

Cn1cc(CC(N)CO)cn1 (centres undefined) gave 3.529%. Result for CCc1cccc(NC(N)=O)c1 was 18.29%. With CN(CC(N)=O)CC1CCCCC1 the screen gave 5.795%. Result for CCO[C@H]1CN(C(=O)CCn2ccnc2C)C[C@@H]1O was 13.87%. CN(C)S(=O)(=O)NC1CCCOc2c(Cl)cccc21 (centres undefined) gave 20.97%. Result for O=C(NCCN1CCCC1)c1ccccc1F was 11.61%.

Result for CCCc1noc(C(C)N2CCn3ccnc3C2)n1 (centres undefined) was 14.96%. CC(NS(C)(=O)=O)C(=O)N1CCc2ccc(Br)cc21 (centres undefined) gave 24.41%. COCCCOc1ccc2c(c1)OCCO2 read 79.72%. Result for CCOC(=O)N(C)C1CCNCC1 was -1.409%. Result for CCOC(=O)CSCC(=O)NC(=O)NCc1ccco1 was -15.2%. CC1(C)OCCC1CN (centres undefined) gave -7.067%.

Cc1ccc(NC(=O)CCCNC(=O)C2CC2)cc1 read -12.12%. With COc1cccc(-n2nnc(C(=O)NC3CC3)c2C)c1 the screen gave 56.19%. Result for O=C(NC1CN(C(=O)c2cccc(Br)c2F)C1)C1CC1 was 5.37%. CCNC(=O)c1cccc(NC(=O)N2CCOCC2)c1 read -18.16%. With O=C(Nc1ncc(Br)cn1)c1ccco1 the screen gave 21.25%. For CN1CN(c2cccc(F)c2C#N)CC1=O the result was -3.434%.

For CN1C(=O)CCC1C(=O)N1CCc2ccc(F)cc21 (centres undefined) the result was 7.417%. COCC(=O)NCc1cc(F)cc(F)c1 read 35.02%. For C[S+]([O-])c1ncn(CCC(=O)Nc2cccc(F)c2)n1 (centres undefined) the result was -2.633%. COc1cc(C(=O)n2ccc(C)n2)cc(OC)c1OC read 5.197%. c1csc(C2CNCCO2)c1 (centres undefined) gave 3.109%. C1CNCCC(N2CCOCC2)C1 (centres undefined) gave -31.74%.

COc1ccc2c(c1)NCC(C)O2 (centres undefined) read 44.95%. With CN(C(=O)c1ccoc1Br)c1cc(C#N)ccn1 the screen gave -9.777%. Result for COC(=O)c1ccc(=O)n(CC(=O)NCCC(C)C)c1 was -11.72%. CCCn1cc(CNC(=O)C2CCOC2)cn1 (centres undefined) gave -8.201%. CC1CN(C(=O)c2ccc(Cl)o2)CC(C)(C)O1 (centres undefined) read -6.107%. Cc1cc(N)n(CC(=O)NCc2cc(C3CC3)on2)n1 read -12.05%.

Result for CN(CC(F)(F)F)C(=O)CN1CCCC(CCO)C1 (centres undefined) was 9.456%. CCc1nc(CNC)cs1 gave 78.36%. With COCC(C)Oc1cc(C)ccc1CN (centres undefined) the screen gave 4.692%. Cc1ccc(C(=O)N2CCCC(CO)C2)o1 (centres undefined) gave -7.101%. For CCNC(=O)COC(=O)CN(C)c1ncccn1 the result was 38.32%.

The last 5 entries again:

SMILES,percent effect
CN(CC(F)(F)F)C(=O)CN1CCCC(CCO)C1 (centres undefined),9.456%
CCc1nc(CNC)cs1,78.36%
COCC(C)Oc1cc(C)ccc1CN (centres undefined),4.692%
Cc1ccc(C(=O)N2CCCC(CO)C2)o1 (centres undefined),-7.101%
CCNC(=O)COC(=O)CN(C)c1ncccn1,38.32%

From ChEMBL document CHEMBL3988442, “University of Dundee, Small-Polar-MMV Screening Library” (2021).